Laboratory results as given in US9910031B2, “Compositions and methods for modulating c-Rel-dependent cytokine production” (Synta Pharmaceuticals Corporation, priority 2003, dated 2018).
At least one structure is not confirmed: it was looked up by name or label, or the drawing left a doubt.

Test system: IL-12 p40
Test: IL-12 p40 inhibition after Toxoplasma antigen (STAg) versus IFN-γ/SAC stimulus
Assay type: cell-based
Conditions: preliminary results
Description: Compound 2 did, in fact, inhibit p70 but not p40 production in human DCs (no inhibition at up to 10 μM Compound 2). […] Therefore, if Compound 2 is acting through c-Rel, we should not observe potent inhibition of IL-12 p40 following STAg stimulation. […] These two results further confirm that the inhibition of IL-12 production by Compound 2 is via the c-Rel pathway.

## C[C@@H]1C[C@H]2[C@@H]3CCC4=CC(=O)C=C[C@]4(C)[C@@]3(F)[C@@H](O)C[C@]2(C)[C@@]1(O)C(=O)CO [dexamethasone, reference compound]
  IC50 of p40 inhibition with STAg induction relative to IFN-γ/SAC stimulus: the same
